Record: PubChem BioAssay AID1259254 (NCATS, 2017)
Shown is one part, drawn at random, of about 59,000 reagents tested. About 1,550 of them (2.6%) count as active. 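G2 share is only a proxy for re-replication; each gene was hit by three separate siRNAs, and active genes were retested.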 The raw values are shown without normalisation. A number with no mark means an inactive call. The numbers tell different reagents against one gene apart. Not given: the amount of reagent.

Test: 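Gene knock-downs that lead to re-replication, shown by excess G2 DNA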 (primary screen)
System: human HCT116 colorectal cancer cells
Reagent: single siRNA against human genes
Time to read-out: 3 days
Detection: 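Nuclei stained with Hoechst and imaged; cell-cycle phase assigned by DNA content; G2 share scaled per plate, non-targeting siRNA 0%, GMNN siRNA 100%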
Direction: G2 robust z-score and G2 cells, % of GMNN control: higher = more G2 cells, more excess DNA replication; raw share of cells in G2: higher = larger share of cells with G2 DNA content
Rule for the call: 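Active siRNAs have a G2 robust z of 5 or more median absolute deviations over the median, which in these data means about 38% or higher of GMNN control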

| gene | siRNA no. | G2 robust z-score | G2 cells, % of GMNN control | raw share of cells in G2 (%) |
| --- | --- | --- | --- | --- |
| ETV6 (ETS variant transcription factor 6) | 1 | -0.118 | 2.14 | 6.01 |
| ETV6 (ETS variant transcription factor 6) | 2 | -0.421 | 0.00464 | 3.66 |
| ETV6 (ETS variant transcription factor 6) | 3 | -0.983 | -3.95 | 3.76 |
| HTR5A (5-hydroxytryptamine receptor 5A) | 1 | 3.5 | 27.6 | 15.7 |
| HTR5A (5-hydroxytryptamine receptor 5A) | 2 | -1.61 | -8.38 | 1.58 |
| HTR5A (5-hydroxytryptamine receptor 5A) | 3 | -0.242 | 1.26 | 3.66 |
| DMTN (dematin actin binding protein) | 1 | 1.21 | 11.5 | 10.7 |
| DMTN (dematin actin binding protein) | 2 | 0.97 | 9.79 | 7.67 |
| DMTN (dematin actin binding protein) | 3 | 2.03 | 17.3 | 10.3 |
| ZFP37 (ZFP37 zinc finger protein) | 1 | -0.767 | -2.43 | 2.72 |
| ZFP37 (ZFP37 zinc finger protein) | 2 | 0.186 | 4.28 | 7.89 |
| ZFP37 (ZFP37 zinc finger protein) | 3 | -0.467 | -0.316 | 3.21 |
| WFIKKN1 | 1 | 4.58 | 35.2 | 22 |
| WFIKKN1 | 2 | 7.08 (active) | 52.8 | 24.4 |
| WFIKKN1 | 3 | -1.17 | -5.23 | 2.72 |
| PPID (peptidylprolyl isomerase D) | 1 | -0.408 | 0.0985 | 4.72 |
| PPID (peptidylprolyl isomerase D) | 2 | 0.701 | 7.9 | 6.77 |
| PPID (peptidylprolyl isomerase D) | 3 | -0.562 | -0.984 | 4.64 |
| PMFBP1 (polyamine modulated factor 1 binding protein 1) | 1 | -0.237 | 1.3 | 4.54 |
| PMFBP1 (polyamine modulated factor 1 binding protein 1) | 2 | 0.876 | 9.13 | 6.16 |
| PMFBP1 (polyamine modulated factor 1 binding protein 1) | 3 | -0.604 | -1.28 | 2.02 |
| DNAJB2 (DnaJ heat shock protein family (Hsp40) member B2) | 1 | -0.715 | -2.06 | 2.36 |
| DNAJB2 (DnaJ heat shock protein family (Hsp40) member B2) | 2 | -0.811 | -2.74 | 2.37 |
| DNAJB2 (DnaJ heat shock protein family (Hsp40) member B2) | 3 | -0.74 | -2.24 | 3.8 |
| MTSS2 (MTSS I-BAR domain containing 2) | 1 | 0.307 | 5.12 | 6.26 |
| MTSS2 (MTSS I-BAR domain containing 2) | 2 | -0.302 | 0.841 | 3.26 |
| MTSS2 (MTSS I-BAR domain containing 2) | 3 | 3.52 | 27.7 | 11.7 |
| OR8D1 (olfactory receptor family 8 subfamily D member 1) | 1 | -0.175 | 1.73 | 4.27 |
| OR8D1 (olfactory receptor family 8 subfamily D member 1) | 2 | -0.244 | 1.25 | 3.53 |
| OR8D1 (olfactory receptor family 8 subfamily D member 1) | 3 | 3.01 | 24.1 | 10.6 |
| MIA3 (MIA SH3 domain ER export factor 3) | 1 | 0.366 | 5.54 | 5.89 |
| MIA3 (MIA SH3 domain ER export factor 3) | 2 | -0.101 | 2.26 | 4.25 |
| MIA3 (MIA SH3 domain ER export factor 3) | 3 | 0.438 | 6.05 | 6.63 |
| PTH (parathyroid hormone) | 1 | 0.109 | 3.73 | 6.1 |
| PTH (parathyroid hormone) | 2 | -0.328 | 0.659 | 4.36 |
| PTH (parathyroid hormone) | 3 | -0.595 | -1.22 | 4.56 |
| PDILT (protein disulfide isomerase like, testis expressed) | 1 | 3.43 | 27.1 | 16.1 |
| PDILT (protein disulfide isomerase like, testis expressed) | 2 | -0.492 | -0.492 | 5.72 |
| PDILT (protein disulfide isomerase like, testis expressed) | 3 | -0.043 | 2.66 | 5.68 |
| WDR87 (WD repeat domain 87) | 1 | 0.763 | 8.34 | 6.88 |
| WDR87 (WD repeat domain 87) | 2 | 3.16 | 25.2 | 10.9 |
| WDR87 (WD repeat domain 87) | 3 | -0.213 | 1.47 | 2.85 |
| IRX5 (iroquois homeobox 5) | 1 | 5.46 (active) | 41.3 | 22.8 |
| IRX5 (iroquois homeobox 5) | 2 | -0.875 | -3.19 | 4.31 |
| IRX5 (iroquois homeobox 5) | 3 | 2.52 | 20.7 | 10.5 |
| RNF175 (ring finger protein 175) | 1 | -0.264 | 1.11 | 4.69 |
| RNF175 (ring finger protein 175) | 2 | -0.602 | -1.27 | 5.35 |
| RNF175 (ring finger protein 175) | 3 | -0.674 | -1.77 | 4.27 |
| CD226 (CD226 molecule) | 1 | -0.372 | 0.349 | 5.12 |
| CD226 (CD226 molecule) | 2 | 0.504 | 6.52 | 6.83 |
| CD226 (CD226 molecule) | 3 | -0.45 | -0.201 | 3.1 |
| RAP1BL (RAP1B like (pseudogene)) | 1 | 1.22 | 11.5 | 8.02 |
| RAP1BL (RAP1B like (pseudogene)) | 2 | -0.375 | 0.326 | 3.24 |
| RAP1BL (RAP1B like (pseudogene)) | 3 | 0.248 | 4.71 | 4.97 |
| OR2D2 (olfactory receptor family 2 subfamily D member 2) | 1 | 2.96 | 23.8 | 13.6 |
| OR2D2 (olfactory receptor family 2 subfamily D member 2) | 2 | 0.332 | 5.3 | 4.91 |
| OR2D2 (olfactory receptor family 2 subfamily D member 2) | 3 | -0.489 | -0.471 | 1.68 |
| CCT6A (chaperonin containing TCP1 subunit 6A) | 1 | 5.85 (active) | 44.1 | 21 |
| CCT6A (chaperonin containing TCP1 subunit 6A) | 2 | 0.00413 | 3 | 6.25 |
| CCT6A (chaperonin containing TCP1 subunit 6A) | 3 | 4.36 | 33.6 | 15.3 |
| PRDM2 (PR/SET domain 2) | 1 | 0.233 | 4.61 | 5.06 |
| PRDM2 (PR/SET domain 2) | 2 | -0.714 | -2.06 | 5.07 |
| PRDM2 (PR/SET domain 2) | 3 | -0.781 | -2.52 | 2.28 |
| BEND6 (BEN domain containing 6) | 1 | -0.332 | 0.632 | 3.81 |
| BEND6 (BEN domain containing 6) | 2 | -0.113 | 2.18 | 3.88 |
| BEND6 (BEN domain containing 6) | 3 | -0.71 | -2.03 | 2.55 |
| LRRC14B (leucine rich repeat containing 14B) | 1 | -0.0681 | 2.49 | 5.7 |
| LRRC14B (leucine rich repeat containing 14B) | 2 | 1.69 | 14.9 | 8.87 |
| LRRC14B (leucine rich repeat containing 14B) | 3 | 0.963 | 9.74 | 7.64 |
| ASH1L-AS1 (ASH1L antisense RNA 1) | 1 | 0.762 | 8.33 | 6.92 |
| ASH1L-AS1 (ASH1L antisense RNA 1) | 2 | 0.152 | 4.04 | 4.72 |
| ASH1L-AS1 (ASH1L antisense RNA 1) | 3 | -0.628 | -1.45 | 2.58 |
| RNF34 (ring finger protein 34) | 1 | -1.07 | -4.56 | 2.54 |
| RNF34 (ring finger protein 34) | 2 | -0.658 | -1.66 | 4.17 |
| RNF34 (ring finger protein 34) | 3 | -0.722 | -2.11 | 4.55 |
| UPF1 (UPF1 RNA helicase and ATPase) | 1 | 0.317 | 5.2 | 5.87 |
| UPF1 (UPF1 RNA helicase and ATPase) | 2 | 0.799 | 8.59 | 7.93 |
| UPF1 (UPF1 RNA helicase and ATPase) | 3 | 1.15 | 11 | 8.89 |
| GBE1 (1,4-alpha-glucan branching enzyme 1) | 1 | 3.88 | 30.3 | 16.2 |
| GBE1 (1,4-alpha-glucan branching enzyme 1) | 2 | 0.281 | 4.94 | 5.42 |
| GBE1 (1,4-alpha-glucan branching enzyme 1) | 3 | 0.189 | 4.3 | 6.9 |
| DDX17 (DEAD-box helicase 17) | 1 | -0.797 | -2.64 | 4.55 |
| DDX17 (DEAD-box helicase 17) | 2 | -1.24 | -5.78 | 1.97 |
| DDX17 (DEAD-box helicase 17) | 3 | -0.901 | -3.37 | 5.15 |
| NUDT16 (nudix hydrolase 16) | 1 | -0.565 | -1.01 | 3.8 |
| NUDT16 (nudix hydrolase 16) | 2 | -0.856 | -3.06 | 2.13 |
| NUDT16 (nudix hydrolase 16) | 3 | -0.178 | 1.71 | 3.2 |

Reformatted: 12 of the entries above.
LRRC14B (leucine rich repeat containing 14B) #3
- G2 robust z-score: 0.963
- G2 cells, % of GMNN control: 9.74
- raw share of cells in G2 (%): 7.64

ASH1L-AS1 (ASH1L antisense RNA 1) #1
- G2 robust z-score: 0.762
- G2 cells, % of GMNN control: 8.33
- raw share of cells in G2 (%): 6.92

ASH1L-AS1 (ASH1L antisense RNA 1) #2
- G2 robust z-score: 0.152
- G2 cells, % of GMNN control: 4.04
- raw share of cells in G2 (%): 4.72

ASH1L-AS1 (ASH1L antisense RNA 1) #3
- G2 robust z-score: -0.628
- G2 cells, % of GMNN control: -1.45
- raw share of cells in G2 (%): 2.58

RNF34 (ring finger protein 34) #1
- G2 robust z-score: -1.07
- G2 cells, % of GMNN control: -4.56
- raw share of cells in G2 (%): 2.54

RNF34 (ring finger protein 34) #2
- G2 robust z-score: -0.658
- G2 cells, % of GMNN control: -1.66
- raw share of cells in G2 (%): 4.17

RNF34 (ring finger protein 34) #3
- G2 robust z-score: -0.722
- G2 cells, % of GMNN control: -2.11
- raw share of cells in G2 (%): 4.55

UPF1 (UPF1 RNA helicase and ATPase) #1
- G2 robust z-score: 0.317
- G2 cells, % of GMNN control: 5.2
- raw share of cells in G2 (%): 5.87

UPF1 (UPF1 RNA helicase and ATPase) #2
- G2 robust z-score: 0.799
- G2 cells, % of GMNN control: 8.59
- raw share of cells in G2 (%): 7.93

UPF1 (UPF1 RNA helicase and ATPase) #3
- G2 robust z-score: 1.15
- G2 cells, % of GMNN control: 11
- raw share of cells in G2 (%): 8.89

GBE1 (1,4-alpha-glucan branching enzyme 1) #1
- G2 robust z-score: 3.88
- G2 cells, % of GMNN control: 30.3
- raw share of cells in G2 (%): 16.2

GBE1 (1,4-alpha-glucan branching enzyme 1) #2
- G2 robust z-score: 0.281
- G2 cells, % of GMNN control: 4.94
- raw share of cells in G2 (%): 5.42
